Our source for the binding values is article PMC12120770.

No constants are given. Whether binding was seen depends on the method and setting. Some results given as binding are weak or reduced against the parent protein; the word gives no strength.

The target in the assay is T1, SoBfr1, heme-free subunit of the Shewanella oneidensis hetero-bacterioferritin SoBfr12 (Shewanella oneidensis) (UniProt Q8EHV0).
T1 sequence: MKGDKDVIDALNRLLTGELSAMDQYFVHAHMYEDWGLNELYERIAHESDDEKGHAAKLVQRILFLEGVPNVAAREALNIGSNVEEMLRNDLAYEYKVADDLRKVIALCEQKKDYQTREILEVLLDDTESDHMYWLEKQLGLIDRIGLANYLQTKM
Put plainly: cryo-EM structure; single-particle cryo-EM of purified SoBfr12 (1.7 mg mL^-1), subunits co-expressed in E. coli; refined with C1 symmetry, 2.62 Å; both purified.

B1: SoBfr2, heme-binding subunit of the Shewanella oneidensis hetero-bacterioferritin SoBfr12 (protein, UniProt Q8EHV1 1-157)
chain: MKGHPKVVGQLNRVLTCELTAINQYFLHARMFKHWGLEKLNHVEYKKSIEDMKHADKLIERVLFLEGLPNLQQLEKLRIGEHAQEMLDCDLAMVQEQLTLLRDAITLCEAEQDYVSRDLLEDILEDEEEHLDWLESQRELIGLTGIQNYLQSQISES
As for B1, the binding result is “binds”.
